Data source: PubChem BioAssay AID1224830 (NIAID, 2016)
Here is one part, drawn at random, of about 18,000 reagents tested. Of all reagents, about 2,900 (16%) were called active. 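Calls are made per well; low scores hint the gene aids the LPS response, high scores that it dampens it.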 Reagents against one gene are numbered here. Repeated entries: four replicate wells of each siRNA pool.

- Aim: 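Genes whose knock-down alters the TNF-alpha reporter response to LPS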 (primary screen)
- Cells: human THP-1 monocytic leukaemia cells, TNF dual-luciferase reporter clone, PMA-differentiated to macrophage-like cells
- Reagent: siRNA pool against human genes, 50 nM
- Timing: LPS for 4 h, given about 3 days after siRNA transfection
- Challenge: bacterial LPS (TLR4 ligand), 10 ng/ml
- Measured: 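Ratio of firefly to renilla light, scaled to the plate median and expressed as a robust z-score per replicate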
- Reading the numbers: TNF reporter robust z-score: higher = stronger TNF reporter response to LPS
- Rule for the call: 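a well is active when its z-score exceeds 2.8 or falls below -1.5; control wells carry no call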

gene,reagent no.,TNF reporter robust z-score,Outcome
CHRNA2,1,-0.79,inactive
CHRNA2,1,0.44,inactive
CHRNA2,1,-0.3,inactive
CHRNA2,1,1.54,inactive
TMEM160,1,0.14,inactive
TMEM160,1,2.2,inactive
TMEM160,1,-0.1,inactive
TMEM160,1,0.43,inactive
SH3RF1,1,0.56,inactive
SH3RF1,1,0.02,inactive
SH3RF1,1,-0.34,inactive
SH3RF1,1,0.75,inactive
TBL1XR1,1,1.78,inactive
TBL1XR1,1,1.09,inactive
TBL1XR1,1,2.64,inactive
TBL1XR1,1,3.32,active
CREBBP,1,-1.07,inactive
CREBBP,1,-0.47,inactive
CREBBP,1,-0.58,inactive
CREBBP,1,-0.38,inactive
CHERP,1,0.8,inactive
CHERP,1,0.53,inactive
CHERP,1,0.7,inactive
CHERP,1,0.36,inactive
ITGA1,1,-0.85,inactive
ITGA1,1,-0.24,inactive
ITGA1,1,-0.53,inactive
ITGA1,1,-0.46,inactive
GORASP1,1,-1.51,active
GORASP1,1,-0.12,inactive
GORASP1,1,-0.57,inactive
GORASP1,1,-0.27,inactive
WNK1,1,1.03,inactive
WNK1,1,0.66,inactive
WNK1,1,-0.04,inactive
WNK1,1,0.19,inactive
WNK1,2,-1.02,inactive
WNK1,2,-1.09,inactive
WNK1,2,-0.42,inactive
WNK1,2,0.05,inactive
TTC29,1,0.85,inactive
TTC29,1,1.03,inactive
TTC29,1,-0.04,inactive
TTC29,1,1.15,inactive
MMP20,1,-0.08,inactive
MMP20,1,1.5,inactive
MMP20,1,0.31,inactive
MMP20,1,2.21,inactive
GFOD2,1,0.89,inactive
GFOD2,1,0.6,inactive
GFOD2,1,0.59,inactive
BBS4,1,-0.02,inactive
BBS4,1,1.79,inactive
BBS4,1,0.97,inactive
BBS4,1,1.69,inactive

19 successive reagents from above, quoted:
gene,reagent no.,TNF reporter robust z-score,Outcome
GORASP1,1,-0.27,inactive
WNK1,1,1.03,inactive
WNK1,1,0.66,inactive
WNK1,1,-0.04,inactive
WNK1,1,0.19,inactive
WNK1,2,-1.02,inactive
WNK1,2,-1.09,inactive
WNK1,2,-0.42,inactive
WNK1,2,0.05,inactive
TTC29,1,0.85,inactive
TTC29,1,1.03,inactive
TTC29,1,-0.04,inactive
TTC29,1,1.15,inactive
MMP20,1,-0.08,inactive
MMP20,1,1.5,inactive
MMP20,1,0.31,inactive
MMP20,1,2.21,inactive
GFOD2,1,0.89,inactive
GFOD2,1,0.6,inactive

More records follow.
gene,reagent no.,TNF reporter robust z-score,Outcome
PPP1R14C,1,-0.37,inactive
PPP1R14C,1,0.44,inactive
PPP1R14C,1,-0.02,inactive
PPP1R14C,1,-0.2,inactive
DGKK,1,-0.8,inactive
DGKK,1,-1.19,inactive
DGKK,1,-0.14,inactive
DGKK,1,-0.58,inactive
BDP1,1,-0.52,inactive
BDP1,1,0.67,inactive
BDP1,1,-0.12,inactive
BDP1,1,0.11,inactive
ARHGAP5,1,-1.64,active
ARHGAP5,1,-0.82,inactive
ARHGAP5,1,-1.38,inactive
ARHGAP5,1,-0.12,inactive
ESM1,1,-0.52,inactive
ESM1,1,-0.39,inactive
ESM1,1,-0.76,inactive
ESM1,1,0.13,inactive
ARL5B,1,-1.19,inactive
ARL5B,1,-1.84,active
ARL5B,1,-2,active
ARL5B,1,-0.66,inactive
OPN4,1,0.69,inactive
OPN4,1,-0.45,inactive
OPN4,1,0.65,inactive
OPN4,1,0.94,inactive
OCIAD2,1,0.12,inactive
OCIAD2,1,-0.54,inactive
OCIAD2,1,1.73,inactive
OCIAD2,1,-0.84,inactive
ALKBH1,1,1.48,inactive
ALKBH1,1,3.88,active
ALKBH1,1,0.74,inactive
ALKBH1,1,-0.33,inactive
LIMD1,1,0.79,inactive
LIMD1,1,1.55,inactive
LIMD1,1,-0.58,inactive
LIMD1,1,1.67,inactive
KCNJ4,1,-0.03,inactive
KCNJ4,1,-0.37,inactive
KCNJ4,1,-0.31,inactive
KCNJ4,1,1.11,inactive
PRSS33,1,-1.41,inactive
PRSS33,1,-0.22,inactive
PRSS33,1,-0.53,inactive
PRSS33,1,-0.1,inactive
MYBL1,1,-0.72,inactive
MYBL1,1,0.03,inactive
MYBL1,1,-0.86,inactive
MYBL1,1,-0.08,inactive
ADAD2,1,-0.35,inactive
ADAD2,1,-0.37,inactive
ADAD2,1,1.76,inactive
ADAD2,1,-0.49,inactive
C8orf58,1,-0.26,inactive
C8orf58,1,-0.16,inactive
C8orf58,1,-0.4,inactive
C8orf58,1,-0.28,inactive
ABCF2,1,1.78,inactive
ABCF2,1,0.94,inactive
ABCF2,1,0.27,inactive
ABCF2,1,0.43,inactive
SPATA32,1,-0.29,inactive
SPATA32,1,-0.41,inactive
SPATA32,1,-0.05,inactive
SPATA32,1,-0.14,inactive
ENOX2,1,-0.31,inactive
ENOX2,1,1.22,inactive
ENOX2,1,0.26,inactive
ENOX2,1,0.13,inactive
PSMA7,1,-1.85,active
PSMA7,1,-1.56,active
PSMA7,1,-1.01,inactive
PSMA7,1,0.51,inactive
PRMT6,1,-0.33,inactive
PRMT6,1,-0.26,inactive
PRMT6,1,0.12,inactive
APOBEC3B,1,-0.14,inactive
APOBEC3B,1,-0.03,inactive
APOBEC3B,1,-0.51,inactive
APOBEC3B,1,-0.27,inactive
RHBDD2,1,,inactive
C6orf58,1,2.19,inactive
C6orf58,1,-0.09,inactive
C6orf58,1,0.01,inactive
C6orf58,1,-1.15,inactive
